Assay results reported in PubChem BioAssay AID504847 (National Center for Advancing Translational Sciences (NCATS), 2011).
In all, about 400,000 compounds went through this assay and about 3,700 (0.93%) were called active. The shares of active, inactive and inconclusive entries below differ from those in the screen. The call rests on the fitted dose curve; in most records, active means well fitted inhibition curve with a large enough effect; inconclusive means small, poorly fitted or top-dose-only effect, or another doubt; inactive means no such curve, though single readings can be large or run the other way. A potency beside an inconclusive call is a rough fit, not a confirmed value.

Amino acid sequences for entries named in this document (tags omitted). A change or cut given only in a name is not applied to a line headed by its entry.
UniProt P11473: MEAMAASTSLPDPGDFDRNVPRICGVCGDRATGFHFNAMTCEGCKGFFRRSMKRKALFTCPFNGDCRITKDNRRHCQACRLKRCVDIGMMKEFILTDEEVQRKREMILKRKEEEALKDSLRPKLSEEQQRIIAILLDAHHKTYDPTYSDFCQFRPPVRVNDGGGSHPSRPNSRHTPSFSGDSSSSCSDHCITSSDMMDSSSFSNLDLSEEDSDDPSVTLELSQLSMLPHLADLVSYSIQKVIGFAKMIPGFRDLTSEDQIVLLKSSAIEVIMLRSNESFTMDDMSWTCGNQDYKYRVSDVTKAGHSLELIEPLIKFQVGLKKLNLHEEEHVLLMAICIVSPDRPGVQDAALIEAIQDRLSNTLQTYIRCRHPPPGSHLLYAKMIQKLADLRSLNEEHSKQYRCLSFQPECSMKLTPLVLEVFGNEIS

What follows are compounds tested against Vitamin D3 receptor (Homo sapiens) (UniProt P11473) (assay: Inhibitors of the vitamin D receptor (VDR): qHTS). Conditions: VDR-SRC2-3 peptide fluorescence polarization, 2 h; max response, negative = inhibition: stronger effect = lower value.
Method in brief: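 After 23 nl compound addition and a short centrifugation, plates sat for 2 hours at ambient temperature; polarization of fluorescence then indicated loss of VDR binding to peptide SRC2-3.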
On the % scale 0 is the no-effect control and ±100 the full control effect; potency means the concentration at half of the fitted maximal effect.

Max response, negative = inhibition, inactive:
CC(=NNC(=S)N1CC2CCC(CC2)C1)c1cnccn1 -23.3%
COc1ccc(CNc2ncc(-c3ccc(F)cc3)n2C)c2ccccc12 -11.7%
COc1cccc(-n2c(=O)c3c(C)c(C)sc3n(Cc3ccccc3C#N)c2=O)c1 6.68%
CC(C)[C@H](NS(=O)(=O)c1ccccc1)C(=O)OCC(=O)NC(=O)NC1CCCCC1 17.9%
COc1cc(OC)cc(C(=O)NCc2ccc3c(c2)OCO3)c1 -7.43%
CC(=O)NCCn1c(SCc2cccc([N+](=O)[O-])c2)nc2ccccc2c1=O 1.04%
CN(CC(=O)NCc1ccco1)CC(=O)Nc1cc(S(C)(=O)=O)ccc1Cl -6.27%
COc1ccc(OCC(=O)N2CCC(c3nc4ccccc4s3)CC2)cc1 -2.17%
CCc1ccc(NC(=O)NCCN2CCN(c3ccc(OC)cc3)CC2)cc1 6.33%
Cc1nn(-c2ccccc2)c(OC(=O)c2cccs2)c1S(=O)(=O)c1ccc([N+](=O)[O-])cc1 -9.14%
CCC12CN(C(=O)c3ccc(C)cc3)CC(CC)(CN(C(=O)c3ccc(C)cc3)C1)C2=O 9.84%
COc1ccc(OC)c(NC(=O)c2c(N3CCCC3=O)c3cc(OC)ccc3n2C)c1 2.93%
CCn1c(SCC(N)=O)nnc1C(C)C 7.21%
CC1CCC(NC(=O)CCS(=O)(=O)c2ccc3c(c2)CC(C)N3C(=O)C2CC2)CC1 (stereo unspecified) -9.14%
CCn1cc(C(=O)N2CCN(c3cc(Cl)ccc3C)CC2)c(=O)c2cc(S(=O)(=O)N3CCOCC3)ccc21 -5.78%
Cc1cc(C(=O)N[C@H](c2ccccc2)[C@@]2(C)C[C@@H]2[C@@H](C)C(=O)Nc2ccc3ccccc3c2)no1 -11.2%
CCc1ccc(NC(=O)C2CCCN(c3nn4cc(-c5ccc(OC)cc5)nc4s3)C2)cc1 (stereo unspecified) 9.97%
CCOc1ccc(S(=O)(=O)NN=C2CCN(C(C)=O)CC2)cc1 -22.3%

Potency, active:
Cc1ccccc1-c1ccc2ncnc(-n3ccnc3)c2c1 14.1 µM
COCCNc1ncnc2ccc(-c3ccc(N(C)C)cc3)cc12 39.8 µM
CN1CCc2c(sc3c2C(=O)NC(c2ccc(OC(=O)c4ccccc4)cc2)N3)C1 (stereo unspecified) 44.7 µM
Cc1cc(S(=O)(=O)ON2C(=O)c3ccccc3C2=O)ccc1F 31.6 µM
Cc1ccc(NC(=O)c2cncc(Br)c2)cc1S(=O)(=O)N(C)C 44.7 µM
CCOc1ccc(C(=O)CCN2CCOCC2)cc1 50.1 µM

Potency, inconclusive:
C=CCN(C(=O)CSC1=NC(=O)CN1C(C)=O)c1nc(C)c(-c2ccccc2)s1 44.7 µM [inhibitor, partial curve]
CC(=O)n1cc(N(C(=O)CCl)c2ccc(C)cc2)c2ccccc21 15.8 µM [inhibitor, partial curve, poor fit]
CCOc1ccc(/C=C/C(=O)Nc2ccc(N3CCOCC3)cc2)cc1 35.5 µM [inhibitor, single point]
CC1=C(C(N)=O)S(=O)(=O)c2ccccc21 22.4 µM [inhibitor, partial curve, poor fit]
O=C(CSc1nnc(-c2ccco2)c(-c2ccco2)n1)c1ccccc1 79.4 µM [inhibitor, single point]
C=CCOc1cccc(/C=C2\C(=O)N(Cc3ccc(C)cc3)C(C)=C2C(=O)OC)c1 15.8 µM [inhibitor, partial curve, poor fit]
Cc1ccc(C)c(N2CCN(S(=O)(=O)c3ccc(-c4cc(C)no4)s3)CC2)c1 100 µM [inhibitor, partial curve, poor fit]
COC(=O)c1oc2ccc(Br)cc2c1NC(C)=O 100 µM [inhibitor, single point]
C/C(=N\Nc1ccccc1C)c1cccnc1 89.1 µM [inhibitor, single point]
OCCNCCCCOc1cccc(Br)c1 89.1 µM [inhibitor, single point]
c1ccc(OCc2nn3c(Cn4cnc5ccccc54)nnc3s2)cc1 70.8 µM [inhibitor, partial curve, poor fit]
COc1cc2c(cc1OC)[C@H](Cc1ccc(O)cc1)NCC2 70.8 µM [inhibitor, partial curve]
COc1cc(/C=C2\SC(c3ccccc3)=NC2=O)cc(Cl)c1O 22.4 µM [inhibitor, single point]
CCOc1cc(/C=C2\N=C(C)OC2=O)cc(Br)c1OCCc1ccccc1 63.1 µM [inhibitor, partial curve, poor fit]
COc1cc(C(c2c(O)cc(C)[nH]c2=O)c2c(O)cc(C)[nH]c2=O)ccc1O 35.5 µM [inhibitor, partial curve, poor fit]
COC(=O)c1c(NC(=O)CCCOc2ccc(C(C)(C)C)cc2)sc2c1C(C(=O)OC)CC2 (stereo unspecified) 56.2 µM [inhibitor, partial curve, poor fit]
CCN1CCN(C(=S)c2ccc(Br)cc2)CC1 89.1 µM [inhibitor, single point]
COC(=O)c1c[nH]c(=O)c2ccccc12 89.1 µM [inhibitor, single point]
Cc1ccc(NC(=S)/N=C(\N)Nc2nc(C)c3cc(C)ccc3n2)c(C)c1 44.7 µM [inhibitor, partial curve, poor fit]
O=C1NC(=O)C2(COC(c3cccnc3)OC2)S1 (stereo unspecified) 89.1 µM [inhibitor, single point]
Cn1c(SCC(=O)c2ccccc2)nnc1-c1cnccn1 50.1 µM [inhibitor, partial curve, poor fit]
Cc1cc(C)cc(NC(=S)/N=C(\N)Nc2nc(C)c3ccccc3n2)c1 79.4 µM [inhibitor, partial curve, poor fit]
CC1=CC(=O)N(c2cccc(C(F)(F)F)c2)C1c1ccc(Cl)cc1 (stereo unspecified) 39.8 µM [inhibitor, single point]
CCC(=O)Nc1ccc(OC)cc1OC 14.1 µM [inhibitor, partial curve, poor fit]
CCOc1cc(C(=S)N2CCCC2)ccc1O 28.2 µM [inhibitor, partial curve, poor fit]
CCOc1ccc(C(c2c(O)cc(C)n(CCOC)c2=O)N2CCN(c3ccccc3)CC2)cc1 (stereo unspecified) 17.8 µM [inhibitor, partial curve, poor fit]
CC(C)c1ccc(NC(=S)NC2CC3C=CC2C3)cc1 (stereo unspecified) 44.7 µM [inhibitor, partial curve, poor fit]
CSc1nc(-c2ccco2)nn1C(=O)CCc1ccccc1 50.1 µM [inhibitor, partial curve, poor fit]
Oc1c(Br)cc(Cl)cc1C=Nc1ccc(N2CCOCC2)cc1 1.26 µM [inhibitor, full curve, poor fit]
NC(=S)N=Nc1ccc(O)cc1 79.4 µM [inhibitor, single point]
CCOC(=O)c1c(NC(=O)c2cc(-c3ccc(Cl)cc3)on2)sc2c1CCCC2 89.1 µM [inhibitor, partial curve, poor fit]
C[C@@]12CCC=C[C@H]1[C@H](c1ccc3ccccc3c1Br)N(Cc1ccccc1)C2=O 89.1 µM [inhibitor, single point]
O=C(Nc1ccccc1)O/N=C1/CCCc2occc21 70.8 µM [inhibitor, single point]
CC1=NOC(=O)/C1=C/c1ccc(O)cc1 89.1 µM [inhibitor, partial curve, poor fit]
COc1cc(/C=C(/C#N)c2nc3ccccc3[nH]2)ccc1OCC(=O)Nc1ccccc1C 79.4 µM [inhibitor, single point]
CCOC(=O)C1CCN(C(=O)COC(=O)CSc2ccc([N+](=O)[O-])cc2)CC1 89.1 µM [inhibitor, single point]
O=C(COC(=O)c1ccccn1)c1ccc([N+](=O)[O-])cc1 20 µM [inhibitor, partial curve, poor fit]
CC[C@]1(O)CC2CN(CCc3c([nH]c4ccccc34)[C@@](C(=O)OC)(c3cc4c(cc3OC)N(C)[C@H]3[C@@](O)(C(=O)OC)[C@H](OC(C)=O)[C@]5(CC)C=CCN6CC[C@]43[C@@H]65)C2)C1 (stereo partly specified) 44.7 µM [inhibitor, full curve]
Cc1ccc(NC(=O)c2snc3ccc(Cl)cc23)cc1C 89.1 µM [inhibitor, partial curve, poor fit]
CC1CC=C2C(C#N)=C(N)C(C#N)(C#N)C(c3cccs3)C2C1 (stereo unspecified) 89.1 µM [inhibitor, single point]
O=C(Nc1ccc(Br)c2ccccc12)c1ccc2ccccc2c1O 3.16 µM [inhibitor, partial curve, poor fit]
COC(=O)c1cc(NS(=O)(=O)c2ccc(N3CCOCC3)c(N)c2)cc(C(=O)OC)c1 89.1 µM [inhibitor, partial curve, poor fit]

Looked up by structure from the entries so far, three records:
Potency, inconclusive:
COC(=O)c1c[nH]c(=O)c2ccccc12 89.1 µM [inhibitor, single point]
CC[C@]1(O)CC2CN(CCc3c([nH]c4ccccc34)[C@@](C(=O)OC)(c3cc4c(cc3OC)N(C)[C@H]3[C@@](O)(C(=O)OC)[C@H](OC(C)=O)[C@]5(CC)C=CCN6CC[C@]43[C@@H]65)C2)C1 (stereo partly specified) 44.7 µM [inhibitor, full curve]
COC(=O)c1c(NC(=O)CCCOc2ccc(C(C)(C)C)cc2)sc2c1C(C(=O)OC)CC2 (stereo unspecified) 56.2 µM [inhibitor, partial curve, poor fit]
